Measurements: patent publication US20140079716A1
No constants are given. Whether binding was seen depends on the method and setting. Some binding calls cover weakened binding; strength is not graded here.

T1: LTα1β2 on the surface of PMA-treated II-23 cells (UniProt P01374)
T1 sequence 1: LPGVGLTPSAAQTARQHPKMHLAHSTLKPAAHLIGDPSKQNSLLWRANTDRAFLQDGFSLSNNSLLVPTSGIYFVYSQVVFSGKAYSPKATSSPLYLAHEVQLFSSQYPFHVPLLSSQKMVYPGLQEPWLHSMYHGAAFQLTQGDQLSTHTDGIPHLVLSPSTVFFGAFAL
T1 sequence 2: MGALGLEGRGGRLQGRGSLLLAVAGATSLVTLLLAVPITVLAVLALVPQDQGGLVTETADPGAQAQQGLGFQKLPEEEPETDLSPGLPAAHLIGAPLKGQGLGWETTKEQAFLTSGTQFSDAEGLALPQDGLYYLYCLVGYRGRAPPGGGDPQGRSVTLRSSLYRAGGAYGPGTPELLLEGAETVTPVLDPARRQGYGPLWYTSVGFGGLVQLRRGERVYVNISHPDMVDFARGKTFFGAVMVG

T2: LTα3 (soluble homotrimer) (UniProt P01374)
T2 sequence (looked up): T1 sequence 1

B1: 9B4 (antibody, V domains shown)
VH: QVTLKESGPGILQPSQTLSLTCSFSGFSLSTSGMGVSWIRQPSGKGLEWLAHIYWDDDKRYNPSLRSRLTISKDTSRNQVFLKITSVDTADTATYYCARREGYYGSSFDFDVWGAGTTVTVSS
VL: QIVLSQSPAILSASPGEKVTMTCRASSSVSYMIWYQQKPGSSPKPWIYATSSLASGVPTRFSGSGSGTSYSLTISRVEAADAATYYCQQWSYNPLTFGAGTKLELK
B2: LT105 (P2E9.7) (antibody, IgG1, V domains shown)
VH: DVQLQESGPGLVKPSQSLSLTCSVTGYSITSGYYWNWIRQFPGNKLEGMGYISYDGSNNYNPSLKNRISITRDSSKNQFFLKLNSVTAEDSGTYYCARDAYSYGMDYWGQGTSVTVSS
VL: DIVLTQSPASLAVSLGQRATISCRASESVDNYGISFMHWYQQKPGQPPKLLIYRASNLESGIPARFSGSGSRTDFTLTINPVETDDVATFYCQQSNKDPYTFGGGTKLEIK
B3: LT102 (P1G8.2) (antibody, IgG1, V domains shown)
VH: EVKLVESGGGLVKPGGSLKLSCAVSGFTFSDYYMYWIRQTPEKRLEWVATIGDGTSYTHYPDSVQGRFTISRDYATNNLYLQMTSLRSEDTALYYCARDLGTGPFAYWGQGTLVTVSA
VL: DVLMTQTPRSLPVSLGDQASISCRSSQNIVHSNGNTYLEWYLQKPGQSPKLLIYKVSNRFSGVPDRFSGSGSGTDFTLKISRVEAEDLGVYYCFQGSHFPWTFGGGTKLEIK
B4: A1D5 (antibody, V domains shown)
VH: EVQLQQSGPELVKPGASVKISCKASGYSFTGYFMNWMRQSHGKSLEWIGRINPYNGDSFYNQKFKDKATLTVDKSSTTAHMELLSLTSEDSAVYYCGRGYDAMDYWGQGTSVTVSS
VL: DIQMTQTTSSLSASLGDRVTISCRASQDISNFLTWYQQKPDGTVKLLIYYTSKLHSGVPSRFSGSGSGTDYSLTISNLEPGDIATYYCQQVSKFPWTFGGGAKLEIK
B5: LT107 (P5C4.1) (antibody, V domains shown)
VH: QVQLKQSGPGLVQPSQNLSITCTVSGFSLTNYGIHWIRQPPGKGLEWLGVIWSGGSTDHNAAFISRLSISKDNSKSQVFFTMNSLEVDDTAIYYCARNRAYYRYEGGMDYWGQGTSVTVSS
VL: DIKMTQSPSSMYASLGERVTITCKASQDINTYLNWFQQKPGKSPMTLIYRADRLLDGVPSRFSGSGSGQDYSLTISSLEDEDMGIYYCQQYDDFPLTFGAGTKLELK
B6: A0D9 (antibody, V domains shown)
VH: QVQLKQSGPGLVQPSQSLSITCTVSGFSLSTYGVHWVRQFPGKGLEWLGVIWRGGNTNYNAAFMSRLTISKDNSKSQVFFKMNSLQAKDTAIYYCVRNQIYDGYYDYAMDYWGQGTSVTVSS
VL: DIKMTQSPSSMYASLGERVTITCKASQDINTYLNWLQQKPGKSPKTLIYRANRLVDGVPSRFSGRGSGQDYSLTISSLEYEDVGIYYCLHYDAFPWTFGGGTKLEIK
B7: LT101 (P1G4.4) / LT103 (P1G9.1) (antibody, V domains shown)
VH: QVQLQQSGPELVKPGASVQISCKASGYVFSSSWMNWVKQRPGRGLEWIGRIYPGDGDTDYTGKFKGKATLTADKSSNTAYMQLSSLTSVDSAVYFCASGYFDFWGQGTPLTVSS
VL: DITMTQSPSSMYASLGERVTITCKASQDMNNYLRWFQQKPGKSPQTLIFRANRLVDGVPSRFSGSGSGQDYSLTISSLEFEDMGIYYCLQHDKFPPTFGGGTKLEIK

Key:
[1] = biological target: T1, LTα1β2 on the surface of PMA-treated II-23 cells; assay: competition FACS (II-23 assay): PMA-treated II-23 cells, varied antibody, then biotin-LTβR-Ig at 1 ug/ml, streptavidin-PE; MFI of bound LTβR-Ig
[2] = biological target: T1, LTα1β2 on the surface of PMA-treated II-23 cells; assay: competition FACS (II-23 assay, as in FIG. 4): LT-expressing cells, varied antibody, labelled LTβR-Ig; MFI of bound LTβR-Ig
[3] = biological target: T2, LTα3 (soluble homotrimer); assay: ELISA on plate-coated LTα3 (1 or 5 ug/ml), HRP anti-murine Ig detection

Binder	binding [1]	binding [2]	binding [3]
B1	binds		
B2	binds	binds	
B3	binds	binds	
B4		binds	
B5		binds	
B6		binds	
B7		binds	binds
